PubChem BioAssay AID504786 | Drosophila RNAi Screening Center, 2011
Screen: 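Positive regulators of HIF-driven reporter output in Drosophila cells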 (primary screen). Cells: Drosophila S2 cells with a stable HIF luciferase reporter. Reagent: long dsRNA against Drosophila genes, about 0.2 µg dsRNA per well of a 384-well plate. Timing: three days of knock-down, then 20 h of DFO before reading. Treatment: desferrioxamine (DFO) at 100 µM, an iron chelator that mimics hypoxia, for 20 h. Measurement: 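Firefly luciferase driven by the mouse ldh-a hypoxia-response element, measured after 20 h of 100 µM DFO; z-scores per plate, higher means more signal lost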. Direction: z-score: higher = stronger loss of HIF reporter signal.
The deposit covers about 21,000 reagents; this is a random part of those with a known target gene and a result. 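Primary screen; positive scores mean lost reporter signal, so the sign may be inverted from the usual convention.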 Reagents against one gene are numbered here. A plus sign joins genes that one reagent is predicted to hit. Reagent sequences are not shown.

gene knocked down	reagent	z-score, replicate 1	z-score, replicate 2	z-score, replicate 3	z-score, replicate 4
CG11629	1	-0.3	-0.3		
CG15594	1	-0.3	-0.3		
SCaMC	1	-0.1	-0.4		
SCaMC	2	-0.2	-0.6		
CG6621	1	-0.3	-0.2		
Ada3	1	0.1	-0.8		
Ada3	2	-0.3	-0.5		
CG15543	1	0	-0.1		
Nbr	1	-0.1	0		
CG14969	1	-0.2	0		
CG14683	1	-0.1	0.2		
GILT2	1	-0.3	-0.3		
Ent1	1	-0.1	-0.5		
Or7a	1	-0.3	-0.5		
CG33453	1	-0.2	-0.1		
CG12128 + CG1407	1	-0.4	-0.5		
Ask1	1	-1.2	-0.8		
GstE10	1	0	-0.2		
TrissinR	1	-0.2	-0.1		
TrissinR	2	-0.5	-0.4		
TrissinR	3	-0.3	-0.2		
twf	1	-0.4	-0.3		
CG7551	1	-0.1	0.1		
Pfdn4	1	-0.2	-0.8		
VhaAC45	1	-0.3	0.5		
CG11178	1	0	-0.1		
CG7579	1	-0.2	-0.5		
Mulk	1	-0.1	1.1		
CG6996	1	-0.2	0		
CG12075	1	-0.3	-0.8		
CG15554	1	-0.4	-0.3		
beat-Ic	1	-0.3	-0.4		
beat-Ic	2	-0.5	-0.2		
atilla	1	-0.4	-0.5		
CG4582	1	-0.3	1.1		
Fmo-2	1	-0.2	-0.1		
dachs	1	0.3	0.4		
dachs	2	-0.2	-0.5		
CG5139	1	-0.2	-0.4		
CG13073	1	-0.4	0		
CG11777	1	-0.3	0		
niki	1	0	-0.2		
Ahcy	1	0	0.3		
tum	1	-0.2	-0.2		
CG7627	1	-0.3	-0.3		
CG4282	1	-0.3	-0.4		
TfIIFalpha	1	-0.1	0.1		
CG30466	1	-0.3	-0.1		
mTerf3	1	-0.3	-0.5		
CG4438	1	-0.3	-0.5		
gammaTub23C	1	-0.2	-0.3		

A portion of the results above, for reference:
gene knocked down	reagent	z-score, replicate 1	z-score, replicate 2	z-score, replicate 3	z-score, replicate 4
CG15554	1	-0.4	-0.3		
beat-Ic	1	-0.3	-0.4		
beat-Ic	2	-0.5	-0.2		
atilla	1	-0.4	-0.5		
CG4582	1	-0.3	1.1		
Fmo-2	1	-0.2	-0.1		
dachs	1	0.3	0.4		
dachs	2	-0.2	-0.5		
CG5139	1	-0.2	-0.4		
CG13073	1	-0.4	0		
CG11777	1	-0.3	0		
niki	1	0	-0.2		
Ahcy	1	0	0.3		

The results go on.
gene knocked down	reagent	z-score, replicate 1	z-score, replicate 2	z-score, replicate 3	z-score, replicate 4
rump	1	1.8	1.3		
CG17300	1	-0.3	0.4		
Skeletor (retired record)	1	-0.1	0.1		
Skeletor (retired record)	2	-0.4	-0.6		
CG17028	1	-0.1	-0.8		
CG15531	1	-0.4	-0.3		
CG42676	1	-0.3	-0.3		
CG42676	2	-0.3	-0.6		
CG11007	1	-0.1	-0.2		
CG13003	1	-0.4	-0.5		
CG12375	1	-0.2	-0.2		
Sox14	1	-0.5	-0.1		
Pfas	1	-0.3	-0.9		
CG7024	1	0.1	-0.2		
chn	1	0.2	0.2		
CG12689	1	-0.3	0		
PhKgamma	1	-0.4	-0.3		
CG15611	1	-0.2	-0.2		
CG15611	2	0.1	0		
pnr	1	-0.3	-0.6		
Rpn2	1	6.1	5.8		
TwdlO	1	0.1	-0.1		
Tpr2	1	0	-0.3		
tkv + CR14033 + tRNA:Asp-GTC-2-1 + 1 more	1	0	-0.2	0.5	-0.4
bocks	1	-0.3	-0.5		
tex	1	0.1	0.9		
CG13159	1	-0.2	-0.2		
aspr	1	-0.5	-0.3		
aspr	2	-0.2	-0.2		
Cox17	1	1.2	1		
ATPCL	1	-0.4	-0.5		
Tep2	1	0	0.1		
Tep2	2	0.2	0.5		
